The other results are listed elsewhere or left out.
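Also: competitive profiling in live THP-1 cells: cysteine peptides tagged with an iodoacetamide desthiobiotin (IA-DTB) probe, intensity after compound treatment relative to DMSO-treated cells.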

The chains behind the UniProt entries cited, without tags or fusion partners. Where a name states a change or a piece, a line headed by the entry shows the natural chain unless it says otherwise.
UniProt A2RUS2: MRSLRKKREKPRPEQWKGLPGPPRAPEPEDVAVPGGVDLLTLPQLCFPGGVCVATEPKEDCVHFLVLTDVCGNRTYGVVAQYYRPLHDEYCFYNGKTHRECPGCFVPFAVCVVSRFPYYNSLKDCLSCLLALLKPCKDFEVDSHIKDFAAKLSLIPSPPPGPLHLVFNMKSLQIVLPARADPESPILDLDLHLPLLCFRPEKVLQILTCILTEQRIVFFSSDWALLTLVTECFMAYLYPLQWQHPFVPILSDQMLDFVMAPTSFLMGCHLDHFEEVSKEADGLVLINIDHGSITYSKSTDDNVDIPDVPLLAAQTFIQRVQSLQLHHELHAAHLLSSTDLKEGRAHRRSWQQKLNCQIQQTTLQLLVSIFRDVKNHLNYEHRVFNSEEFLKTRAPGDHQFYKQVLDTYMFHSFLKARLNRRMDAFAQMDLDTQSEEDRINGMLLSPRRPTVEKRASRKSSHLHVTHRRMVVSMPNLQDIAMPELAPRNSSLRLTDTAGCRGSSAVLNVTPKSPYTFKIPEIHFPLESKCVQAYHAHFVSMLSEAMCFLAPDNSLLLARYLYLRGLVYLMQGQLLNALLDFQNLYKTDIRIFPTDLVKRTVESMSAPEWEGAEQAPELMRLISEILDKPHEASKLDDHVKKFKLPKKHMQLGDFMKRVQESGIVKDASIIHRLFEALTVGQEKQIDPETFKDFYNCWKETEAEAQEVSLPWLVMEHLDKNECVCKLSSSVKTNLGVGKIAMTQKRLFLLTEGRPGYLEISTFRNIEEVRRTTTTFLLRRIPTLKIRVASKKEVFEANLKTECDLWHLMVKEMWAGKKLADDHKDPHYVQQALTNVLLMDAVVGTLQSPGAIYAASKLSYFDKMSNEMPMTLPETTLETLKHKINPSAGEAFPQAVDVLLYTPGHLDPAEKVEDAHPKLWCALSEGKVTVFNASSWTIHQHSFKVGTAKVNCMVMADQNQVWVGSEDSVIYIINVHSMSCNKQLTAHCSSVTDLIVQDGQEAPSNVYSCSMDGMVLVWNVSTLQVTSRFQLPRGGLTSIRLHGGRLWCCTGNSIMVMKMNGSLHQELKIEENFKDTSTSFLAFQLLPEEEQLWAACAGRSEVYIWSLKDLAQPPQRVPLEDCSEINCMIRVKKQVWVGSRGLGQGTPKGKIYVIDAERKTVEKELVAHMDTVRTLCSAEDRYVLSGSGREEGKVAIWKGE
UniProt Q9UJV9: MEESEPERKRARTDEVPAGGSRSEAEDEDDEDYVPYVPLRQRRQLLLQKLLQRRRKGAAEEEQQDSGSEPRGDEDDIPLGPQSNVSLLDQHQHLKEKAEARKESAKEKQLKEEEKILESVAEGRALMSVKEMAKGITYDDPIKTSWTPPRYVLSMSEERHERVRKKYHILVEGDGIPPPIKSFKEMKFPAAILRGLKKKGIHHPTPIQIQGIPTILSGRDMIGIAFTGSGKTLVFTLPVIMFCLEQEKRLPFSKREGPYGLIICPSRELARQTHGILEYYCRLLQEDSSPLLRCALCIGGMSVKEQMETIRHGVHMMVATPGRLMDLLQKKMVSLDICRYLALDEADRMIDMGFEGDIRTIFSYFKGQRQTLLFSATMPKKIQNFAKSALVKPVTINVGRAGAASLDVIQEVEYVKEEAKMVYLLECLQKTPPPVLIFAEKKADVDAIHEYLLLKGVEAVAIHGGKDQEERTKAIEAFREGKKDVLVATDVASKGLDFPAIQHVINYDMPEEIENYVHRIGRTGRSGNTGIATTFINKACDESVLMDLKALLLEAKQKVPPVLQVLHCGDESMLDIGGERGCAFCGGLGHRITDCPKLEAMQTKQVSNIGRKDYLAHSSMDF
UniProt O00571: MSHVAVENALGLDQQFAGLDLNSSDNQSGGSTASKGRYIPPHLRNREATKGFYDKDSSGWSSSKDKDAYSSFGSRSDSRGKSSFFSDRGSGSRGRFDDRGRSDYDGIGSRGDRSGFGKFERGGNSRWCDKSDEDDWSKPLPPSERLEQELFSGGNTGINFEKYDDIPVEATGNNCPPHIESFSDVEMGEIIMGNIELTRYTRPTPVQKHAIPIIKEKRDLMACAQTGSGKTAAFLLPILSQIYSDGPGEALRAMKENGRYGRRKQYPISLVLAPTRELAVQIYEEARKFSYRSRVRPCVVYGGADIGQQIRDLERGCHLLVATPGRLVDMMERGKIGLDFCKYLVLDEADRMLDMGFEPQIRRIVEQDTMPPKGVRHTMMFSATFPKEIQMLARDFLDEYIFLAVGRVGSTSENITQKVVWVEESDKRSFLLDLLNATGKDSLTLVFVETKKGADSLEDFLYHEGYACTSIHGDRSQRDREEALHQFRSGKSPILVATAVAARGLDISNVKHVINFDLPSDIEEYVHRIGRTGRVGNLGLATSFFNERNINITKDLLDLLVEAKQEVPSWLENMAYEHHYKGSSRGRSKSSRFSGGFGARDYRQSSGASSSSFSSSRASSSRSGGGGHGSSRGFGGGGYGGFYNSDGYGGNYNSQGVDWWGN
UniProt O75064: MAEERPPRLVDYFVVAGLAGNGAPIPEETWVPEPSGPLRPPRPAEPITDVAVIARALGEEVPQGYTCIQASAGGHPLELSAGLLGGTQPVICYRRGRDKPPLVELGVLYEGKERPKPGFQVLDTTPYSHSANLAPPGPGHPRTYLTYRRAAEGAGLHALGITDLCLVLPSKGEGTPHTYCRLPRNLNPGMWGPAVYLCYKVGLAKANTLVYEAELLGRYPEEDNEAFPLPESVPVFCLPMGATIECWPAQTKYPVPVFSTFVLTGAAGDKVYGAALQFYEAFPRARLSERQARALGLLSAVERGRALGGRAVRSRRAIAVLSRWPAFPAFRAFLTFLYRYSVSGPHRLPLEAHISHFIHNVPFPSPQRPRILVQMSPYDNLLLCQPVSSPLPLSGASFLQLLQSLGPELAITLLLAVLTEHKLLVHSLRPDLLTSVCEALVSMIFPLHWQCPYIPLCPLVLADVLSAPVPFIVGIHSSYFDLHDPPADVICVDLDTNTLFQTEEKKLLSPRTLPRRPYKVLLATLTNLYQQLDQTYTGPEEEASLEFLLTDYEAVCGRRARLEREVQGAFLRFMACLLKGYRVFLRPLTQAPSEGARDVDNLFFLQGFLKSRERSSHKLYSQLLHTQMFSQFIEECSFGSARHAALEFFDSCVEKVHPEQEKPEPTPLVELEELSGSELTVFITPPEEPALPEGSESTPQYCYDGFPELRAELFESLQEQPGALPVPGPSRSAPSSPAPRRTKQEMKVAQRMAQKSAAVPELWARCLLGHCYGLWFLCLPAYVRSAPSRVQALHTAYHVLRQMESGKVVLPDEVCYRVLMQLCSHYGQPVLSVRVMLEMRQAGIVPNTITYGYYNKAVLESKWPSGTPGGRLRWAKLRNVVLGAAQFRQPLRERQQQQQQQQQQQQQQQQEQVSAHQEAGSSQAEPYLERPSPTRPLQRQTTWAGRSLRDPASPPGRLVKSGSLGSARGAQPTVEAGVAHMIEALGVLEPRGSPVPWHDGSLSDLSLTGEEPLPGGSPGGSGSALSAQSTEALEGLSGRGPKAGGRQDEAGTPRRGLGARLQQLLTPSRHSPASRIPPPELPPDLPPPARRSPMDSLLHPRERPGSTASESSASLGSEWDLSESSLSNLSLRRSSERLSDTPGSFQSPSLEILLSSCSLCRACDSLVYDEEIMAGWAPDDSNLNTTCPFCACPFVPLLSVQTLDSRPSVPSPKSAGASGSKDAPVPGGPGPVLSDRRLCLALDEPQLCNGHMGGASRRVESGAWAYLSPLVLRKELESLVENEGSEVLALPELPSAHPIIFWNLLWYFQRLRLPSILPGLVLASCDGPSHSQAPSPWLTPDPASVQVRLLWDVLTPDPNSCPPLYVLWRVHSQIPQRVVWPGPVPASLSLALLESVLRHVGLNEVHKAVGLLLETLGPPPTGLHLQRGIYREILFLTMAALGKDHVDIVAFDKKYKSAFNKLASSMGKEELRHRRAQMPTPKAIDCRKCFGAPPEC
UniProt Q8WYQ5: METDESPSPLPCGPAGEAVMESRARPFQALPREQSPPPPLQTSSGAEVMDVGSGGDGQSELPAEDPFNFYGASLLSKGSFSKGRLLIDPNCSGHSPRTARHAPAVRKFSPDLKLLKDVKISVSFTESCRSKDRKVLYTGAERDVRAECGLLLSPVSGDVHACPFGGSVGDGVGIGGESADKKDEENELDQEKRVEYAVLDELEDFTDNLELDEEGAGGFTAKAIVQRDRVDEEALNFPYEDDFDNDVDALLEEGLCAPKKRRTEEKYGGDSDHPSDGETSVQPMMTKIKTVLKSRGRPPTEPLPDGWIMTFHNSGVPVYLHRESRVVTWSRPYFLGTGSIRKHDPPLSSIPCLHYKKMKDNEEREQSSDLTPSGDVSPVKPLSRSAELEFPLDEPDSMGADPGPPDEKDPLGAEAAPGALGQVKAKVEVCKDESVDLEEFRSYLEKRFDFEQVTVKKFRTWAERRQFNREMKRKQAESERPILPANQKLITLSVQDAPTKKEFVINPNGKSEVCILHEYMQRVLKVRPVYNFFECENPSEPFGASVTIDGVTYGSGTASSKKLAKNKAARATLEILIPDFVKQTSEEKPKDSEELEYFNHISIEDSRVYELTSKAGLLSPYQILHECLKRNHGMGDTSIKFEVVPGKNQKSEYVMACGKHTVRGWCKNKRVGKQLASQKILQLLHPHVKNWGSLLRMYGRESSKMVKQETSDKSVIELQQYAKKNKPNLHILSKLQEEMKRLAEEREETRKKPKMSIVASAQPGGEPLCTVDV
UniProt Q9H4E7, whole entry, looked up: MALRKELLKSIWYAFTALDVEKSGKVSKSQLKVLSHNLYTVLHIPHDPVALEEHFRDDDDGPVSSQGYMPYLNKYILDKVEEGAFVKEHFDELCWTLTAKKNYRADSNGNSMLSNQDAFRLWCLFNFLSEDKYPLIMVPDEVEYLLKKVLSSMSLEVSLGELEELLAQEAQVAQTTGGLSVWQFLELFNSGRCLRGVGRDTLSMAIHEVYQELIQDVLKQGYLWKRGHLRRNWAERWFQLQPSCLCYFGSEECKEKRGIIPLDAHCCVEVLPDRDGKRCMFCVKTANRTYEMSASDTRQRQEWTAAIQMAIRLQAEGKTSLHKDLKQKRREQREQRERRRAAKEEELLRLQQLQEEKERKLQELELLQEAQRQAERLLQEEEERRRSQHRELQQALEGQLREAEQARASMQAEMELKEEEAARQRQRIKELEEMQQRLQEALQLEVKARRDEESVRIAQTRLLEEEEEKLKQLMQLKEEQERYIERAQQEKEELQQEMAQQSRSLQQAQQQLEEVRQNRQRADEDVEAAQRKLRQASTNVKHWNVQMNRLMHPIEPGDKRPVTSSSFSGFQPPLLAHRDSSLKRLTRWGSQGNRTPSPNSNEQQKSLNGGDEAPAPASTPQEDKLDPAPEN
UniProt Q16698: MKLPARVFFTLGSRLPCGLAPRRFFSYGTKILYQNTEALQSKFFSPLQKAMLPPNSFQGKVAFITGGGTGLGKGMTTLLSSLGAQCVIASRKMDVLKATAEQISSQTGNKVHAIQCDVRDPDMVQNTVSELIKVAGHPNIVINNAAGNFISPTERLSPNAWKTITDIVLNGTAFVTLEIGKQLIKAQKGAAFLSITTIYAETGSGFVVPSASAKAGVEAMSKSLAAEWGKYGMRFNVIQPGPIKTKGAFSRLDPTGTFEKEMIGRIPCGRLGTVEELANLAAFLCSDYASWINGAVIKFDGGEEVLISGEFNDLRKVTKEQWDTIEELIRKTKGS
UniProt Q92499: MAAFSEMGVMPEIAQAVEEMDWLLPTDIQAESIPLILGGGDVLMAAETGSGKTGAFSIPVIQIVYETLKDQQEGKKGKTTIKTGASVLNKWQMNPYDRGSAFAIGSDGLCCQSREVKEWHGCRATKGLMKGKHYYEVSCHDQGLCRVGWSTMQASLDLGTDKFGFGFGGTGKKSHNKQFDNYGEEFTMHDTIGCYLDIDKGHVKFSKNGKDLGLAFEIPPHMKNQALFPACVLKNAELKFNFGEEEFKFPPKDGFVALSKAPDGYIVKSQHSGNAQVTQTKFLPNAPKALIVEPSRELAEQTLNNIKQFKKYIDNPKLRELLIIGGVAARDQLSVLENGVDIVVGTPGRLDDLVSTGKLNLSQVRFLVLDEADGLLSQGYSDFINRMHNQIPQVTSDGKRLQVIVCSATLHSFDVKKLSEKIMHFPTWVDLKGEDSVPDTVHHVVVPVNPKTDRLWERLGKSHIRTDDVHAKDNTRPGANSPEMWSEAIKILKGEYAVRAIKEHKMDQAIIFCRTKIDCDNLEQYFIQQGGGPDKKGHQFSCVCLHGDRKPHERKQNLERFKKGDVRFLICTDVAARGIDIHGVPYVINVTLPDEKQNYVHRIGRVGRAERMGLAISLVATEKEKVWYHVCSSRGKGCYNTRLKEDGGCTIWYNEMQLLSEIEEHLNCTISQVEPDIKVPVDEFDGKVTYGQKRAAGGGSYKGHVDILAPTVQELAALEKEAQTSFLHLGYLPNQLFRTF

Compound in the assay: Cc1cc(ccc1-c1ccccc1)C(=O)N1CCCN(CC1)C(=O)CCl [compound 10]
Kind of assay: probe-labelled cysteine peptide fold change vs DMSO (competition) (log2 fold change); higher = less target engagement (more negative = stronger competition). The conditions noted are these: 50 µM; THP-1; incubation time: 4 h.
“DENND3_A2RUS2_1094_DTSTSFLAFQLLPEEEQLWAACAGR (UniProt A2RUS2)”: the “probe-labelled cysteine peptide fold change” value was determined as 1.16. For “DDX19A_Q9NUU7_166_YPQCLCLSPTYELALQTGK (UniProt Q9NUU7)”, the “probe-labelled cysteine peptide fold change” value is 0.117. Consider “DHRS7_Q9Y394_147_SLCMDTSLDVYRK (UniProt Q9Y394)”, for which the “probe-labelled cysteine peptide fold change” value was -0.102. Next, “DGKA_P23743_253_ALPCEVSTYAK (UniProt P23743)”: -0.455; “DDX10_Q13206_392_GLDFPAVNWVLQFDCPEDANTYIHR (UniProt Q13206)”: 0.575; “DDB1_Q16531_260_QSTIVCHNR (UniProt Q16531)”: 0.0811.

Consider “DDX41_Q9UJV9_338_KMVSLDICR (UniProt Q9UJV9)”, for which the “probe-labelled cysteine peptide fold change” value was -0.532. Next, “DENND3_A2RUS2_1174_TLCSAEDRYVLSGSGR (UniProt A2RUS2)”: -0.121; “DDX41_Q9UJV9_568_QKVPPVLQVLHCGDESMLDIGGER (UniProt Q9UJV9)”: -0.298; “DDX3X_O00571_223_RDLMACAQTGSGK (UniProt O00571)”: 0.0744. Consider “DDX58_O95786_278_TFVSLLICEHHLK (UniProt O95786)”, for which the “probe-labelled cysteine peptide fold change” value is -0.0657. With “DDX27_Q96GQ7_357_LIDHLHNCPSFHLSSIEVLILDEADR (UniProt Q96GQ7)” the figure was 0.122; with “DDHD2_O94830_470_ESEFCSSSNTR (UniProt O94830)”, -0.538; with “DDX39B_Q13838_239_EIRPVCR (UniProt Q13838)”, 0.105. In the case of “DENND4B_O75064_652_HAALEFFDSCVEK (UniProt O75064)”, the “probe-labelled cysteine peptide fold change” value is 0.235.

Regarding “DGCR8_Q8WYQ5_352_KHDPPLSSIPCLHYK (UniProt Q8WYQ5)”, the “probe-labelled cysteine peptide fold change” value is 0.00272. Next, “DENND4B_O75064_815_VVLPDEVCYR (UniProt O75064)”: 0.0606; “DENND4A_Q7Z401_648_DASLAFFDDCVDK (UniProt Q7Z401)”: 0.317; “DEF6_Q9H4E7_246+253_WFQLQPSCLCYFGSEECK (UniProt Q9H4E7)”: -0.45. Next, “DDX3X_O00571_317_GCHLLVATPGR (UniProt O00571)”: -0.0375; “DECR1_Q16698_86_GMTTLLSSLGAQCVIASR (UniProt Q16698)”: 0.213. With “DDX1_Q92499_519_TKIDCDNLEQYFIQQGGGPDKK (UniProt Q92499)” the figure was -0.62; with “DDX5_P17844_320_DYIHINIGALELSANHNILQIVDVCHDVEK (UniProt P17844)”, 0.363; with “DDX21_Q9NR30_291_LSVACFYGGTPYGGQFER (UniProt Q9NR30)”, 0.193. Take “DEF6_Q9H4E7_266_GIIPLDAHCCVEVLPDRDGKR (UniProt Q9H4E7)”: the “probe-labelled cysteine peptide fold change” value is -0.227.

As for “DGCR8_Q8WYQ5_657_SEYVMACGK (UniProt Q8WYQ5)”, the “probe-labelled cysteine peptide fold change” value is -0.266. Turning to “DDX1_Q92499_542_GHQFSCVCLHGDR (UniProt Q92499)”, the “probe-labelled cysteine peptide fold change” value was -0.0884.

On to “DDX5_P17844_170_TLSYLLPAIVHINHQPFLERGDGPICLVLAPTR (UniProt P17844)”, for which the “probe-labelled cysteine peptide fold change” value was 0.565. As to “DECR1_Q16698_116_VHAIQCDVR (UniProt Q16698)”, the “probe-labelled cysteine peptide fold change” value worked out at 0.199.

Regarding “DDX3Y_O15523_62_DSSGWSCSK (UniProt O15523)”, the “probe-labelled cysteine peptide fold change” value was -0.59.

Regarding “DDX41_Q9UJV9_568_VPPVLQVLHCGDESMLDIGGER (UniProt Q9UJV9)”, the “probe-labelled cysteine peptide fold change” value is -0.148. With “DDX24_Q9GZR7_467_CLVVDEADR (UniProt Q9GZR7)” the figure was 0.324; with “DECR2_Q9NUI1_22_HLFCPDLLR (UniProt Q9NUI1)”, -0.35.

As to “DDX17_Q92841_584_TTSSANNPNLMYQDECDRR (UniProt Q92841)”, the “probe-labelled cysteine peptide fold change” value is -0.0273. Next, “DDX50_Q9BQ39_242_LSVACFYGGTSYQSQINHIR (UniProt Q9BQ39)”: -0.294.

Values taken from the supplement of paper PMC12067093, “Discovery and optimisation of a covalent ligand for TRIM25 and its application to targeted protein ubiquitination” (Chemical Science, 2025).
